Laboratory results published in PubChem BioAssay AID1347076 (National Center for Advancing Translational Sciences (NCATS), 2019).
Out of some 400,000 compounds screened, about 13,000 (3.2%) were called active. Inconclusive results, whose numbers are uncertain, are shown with a selection of clear calls. Calls come from the whole dose curve; as a rule, active = well fitted cell-killing curve with a large enough effect; inconclusive = small, poorly fitted or top-dose-only effect, or effect the other way; inactive = flat fitted curve, though single readings scatter. Potencies of inconclusive entries are doubtful fits and often do not repeat.

Assay: qHTS assay for MDR1-selective chemotherapeutics: Primary screen using the drug-selected MDR subline cells KB-V1; note: nearly all actives have a fitted effect of over 60% in size
Settings: KB-V1 MDR cells viability, CellTiter-Glo, 72 h; activity change, negative = cytotoxicity: at 46.1 µM (top of the series)
Summary of the method: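 qHTS viability screen in drug-selected KB-V1 MDR cells: 72 h compound treatment at 37 degrees C, ATP luminescence end point.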
% is set by controls: 0 for no effect and ±100 for the full control effect; potency is the fitted concentration of half-maximal effect.

| SMILES | Potency | activity change, negative = cytotoxicity |
| --- | --- | --- |
| O=C(Cc1ccc(Br)cc1)Nc1ccccc1Sc1ccccc1 | inconclusive: 29.1 µM [cytotoxic, single point] | – |
| CCc1nc(SCc2ccc(OC)c(Br)c2)n[nH]1 | inconclusive: 18.4 µM [rising, single point] | – |
| COc1ccc(C2C(C(=O)c3ccccc3)N3c4ccccc4C=CC3C2[N+](=O)[O-])cc1 (stereo not drawn) | – | inactive: -21.9% |
| CC(OC(=O)c1cccn1C)C(=O)Nc1ccc2c(c1)OCO2 (stereo not drawn) | – | inactive: -25.8% |
| CC1(C(=O)NCc2cccc(C(F)(F)F)c2)CCN1Cc1ccc(-c2ccccc2)o1 (stereo not drawn) | inconclusive: 23.1 µM [cytotoxic, partial curve, poor fit] | – |
| O=C(C[C@@H]1CC[C@@H]2[C@H](COC[C@@H](O)CN2Cc2cc(F)ccc2F)O1)NCc1ccc(F)cc1 | inconclusive: 13 µM [cytotoxic, partial curve] | – |
| Cc1nnc(SCC(=O)Nc2ncc(Cl)cc2Cl)n1Cc1ccccc1 | – | inactive: 5.3% |
| CC(C(=O)Nc1ccc(Cl)cc1)c1ncc(C(F)(F)F)cc1Cl (stereo not drawn) | active: 25.9 µM | – |
| COc1ccc(/C=C/C(=O)O)cc1S(=O)(=O)Nc1ccc2c(c1)OCO2 | – | inactive: 14.5% |
| Oc1ccc(C[C@H]2CNC(=S)N2CC2CCCN2C[C@H](Cc2ccc(O)cc2)N2C[C@H](Cc3ccc(O)cc3)N(CC3CCCCCC3)C2=S)cc1 (stereo partly drawn) | inconclusive: 11.6 µM [rising, partial curve, poor fit] | – |
| Cc1ccccc1S(=O)(=O)N1C[C@H]2CON(C)[C@H]2C[C@H]1c1cccc(N2CCOCC2)c1 | – | inactive: 0.0002% |
| COc1ccc(S(=O)(=O)N(CC(=O)Nc2ccc(F)c(Cl)c2)c2ccc(C)cc2)cc1OC | inconclusive: 9.2 µM [cytotoxic, partial curve] | – |
| O=C(COC(=O)C1CCN(C(=O)c2ccc(Cl)cc2)CC1)c1ccco1 | inconclusive: 29.1 µM [rising, single point] | – |
| Cc1cccc(NC(=O)CSc2nc3ccccc3nc2N2CCC(C)CC2)c1 | inconclusive: 29.1 µM [cytotoxic, single point] | – |
| COc1ccc(/C(C)=N/NC(=O)c2nnn(-c3nonc3N)c2-c2cccs2)cc1 | inconclusive: 18.4 µM [rising, partial curve] | – |
| O=C(CCN1C(=O)/C(=C/c2ccc3c(c2)OCO3)SC1=S)Nc1cccc(C(=O)O)c1 | inconclusive: 4.11 µM [rising, partial curve, poor fit] | – |
| COc1ccc(Cl)cc1NC(=O)CN1C(=O)CC(C)S(=O)(=O)c2ccccc21 (stereo not drawn) | – | inactive: -25.2% |
| CCN(CC(O)Cn1c2ccccc2c2ccccc21)S(=O)(=O)c1ccc(F)cc1 (stereo not drawn) | active: 11.6 µM | – |

Complete entries, quoted from the list. Values in the order: Potency | activity change, negative = cytotoxicity
Cc1cccc(NC(=O)CSc2nc3ccccc3nc2N2CCC(C)CC2)c1 is entered as inconclusive: 29.1 µM [cytotoxic, single point] | –
COc1ccc(S(=O)(=O)N(CC(=O)Nc2ccc(F)c(Cl)c2)c2ccc(C)cc2)cc1OC is entered as inconclusive: 9.2 µM [cytotoxic, partial curve] | –
